Data: PubChem BioAssay AID2685 (National Center for Advancing Translational Sciences (NCATS), 2010)
The list shows a part of the results. Further columns of the screen follow, without active or inactive calls. The list favours compounds with an active or inconclusive main result. Words in brackets tell the shape of the fitted curve; partial curves, single points and poor fits give uncertain potencies.

Assay: qHTS Assay for Lipid Storage Modulators in Drosophila S3 Cells;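 as to cell number change: cells counted by Cell Tracker Red CMTPX staining in the red channel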
Details: BODIPY lipid droplet fluorescence, 18-24 h; for cell number change: measured here: cell count max response, cells fed with added oleic acid
Procedure, shortened: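 Laser-scanning cytometry quantifies lipid droplet accumulation (500–530 nm total intensity; droplet/cell object ratio) in oleic acid-fed (400 uM added) Drosophila S3 cells treated with a concentration series. 20 uM Triacsin C defined 100% inhibition.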

[1] = measured here: lipid fluorescence (Fed channel) AC50, cells fed with added oleic acid
[2] = measured here: cell number channel AC50, cells fed with added oleic acid

SMILES | cell number change | AC50 [1] | AC50 [2]
COc1ccccc1CNC(=O)CN(C)S(=O)(=O)c1ccc(F)cc1 | -12.4% |  | 
Cc1[nH]c2ccccc2c1/C=C/C(=O)c1ccccc1 | 8.24% | 18.4 µM [falling, single point] | 
CCOC(=O)N1CCN(Cc2nc3cc([N+](=O)[O-])ccc3n2CC)CC1 | 24.8% |  | 
CCOc1ccc(S(=O)(=O)N/N=C(\C)Cc2ccc(OC)cc2)cc1 | 70.4% |  | 2.31 µM [rising, full curve]
Cc1noc(C)c1COc1ccccc1C(=O)N(C)Cc1ccc(C(C)(C)C)cc1 | -6.86% | 8.2 µM [falling, partial curve] | 
O=C1CN(C(=O)CSc2nnnn2C2CC2)c2ccccc2N1 | 34% |  | 0.0651 µM [rising, full curve, poor fit]
CC(=O)c1cccc(N/C=C\C(=O)c2ccc(C)cc2)c1 | 45.1% |  | 29.1 µM [rising, single point]
Cc1cc(N2CCN(C(=O)c3ccco3)CC2)n2nc(-c3cccc(F)c3)cc2n1 | -47.7% |  | 32.6 µM [falling, single point]
COc1ccc(C(=O)N/N=C2/SCC(=O)N2Cc2ccc3c(c2)OCO3)cc1OC | -22.4% | 5.17 µM [falling, full curve, poor fit] | 
CCOC(=O)N1CCN(CCC(=O)c2ccc(OC)cc2)CC1 | -64.4% | 16.4 µM [falling, single point] | 18.4 µM [falling, single point]
CCc1noc(C)c1C(=O)Nc1nc(-c2ccc(Cl)cc2Cl)cs1 | 25% | 6.51 µM [falling, single point] | 4.61 µM [falling, single point]
CCC(=O)N1CCN(c2ccccc2NC(=O)COc2ccccc2Cl)CC1 |  | 2.31 µM [rising, partial curve] | 1.64 µM [rising, partial curve]
COc1ccc(N2Cc3ccccc3C2=NC(=O)c2cncc(Br)c2)cc1 | 39.1% |  | 25.9 µM [rising, single point]
COc1ccc(C2C=C(c3ccccc3)Nc3nnnn32)cc1 (stereo not given) |  |  | 6.51 µM [rising, single point]
CCCc1nc2ccccc2c(C(=O)OCC(=O)NCc2ccc3c(c2)OCO3)c1CC | -56% | 0.206 µM [falling, full curve, poor fit] | 29.1 µM [falling, partial curve, poor fit]
CCc1ccc(Nc2nc(C)cc(C)n2)cc1 | -6.04% |  | 
CCCCCCCCCCOC(=O)Cn1c(COc2ccccc2C)[n+](C)c2ccccc21 | -41.2% | 2.59 µM [falling, full curve] | 7.31 µM [falling, partial curve]
Cc1ccc(S(=O)(=O)n2c(CN3CCCC(C)C3)nc3ccccc32)cc1 (stereo not given) |  |  | 6.51 µM [rising, partial curve, poor fit]
Cc1nn(Cc2ccc(Cl)cc2Cl)c(Cl)c1/C=C/C(=O)OCC(=O)NCC(F)(F)F |  | 0.146 µM [rising, full curve, poor fit] | 
CCOc1ccc(N(CC(=O)NCc2ccccc2)S(=O)(=O)c2ccc(C)cc2)cc1 | -29.4% |  | 
CCn1c(C)c(C)c2cc(C(=O)N3CCN(c4ccccc4)CC3)ccc21 |  |  | 3.26 µM [rising, single point]

SMILES | cell number change | AC50 [1] | AC50 [2]
C=CCn1c(SCC(=O)Nc2cc(C)on2)nc2sc(CC)cc2c1=O | 19.9% | 5.17 µM [rising, partial curve] | 
COc1ccccc1C(=O)Nc1ccc2c(c1)nc(CCNC(=O)c1ccco1)n2C | 57.1% |  | 
Cc1ccc(N(C(=O)c2csnn2)C(C(=O)NC2CCCCC2)c2ccccn2)cc1C (stereo not given) | 25.2% | 29.1 µM [rising, partial curve, poor fit] | 
CC(=O)Oc1ccc(-c2ccc(C(=O)NCCc3ccc(S(N)(=O)=O)cc3)cc2)cc1 | 191% |  | 18.4 µM [rising, partial curve]
COc1ccccc1NC(=S)N(Cc1ccco1)Cc1cc2cccc(C)c2[nH]c1=O | 8.6% | 0.206 µM [rising, full curve, poor fit] | 
Cc1cc(C)n2nc(C(=O)N/N=C/c3ccc(Cl)cc3)nc2n1 | -13.2% |  | 
CN(C)CCN(Cc1ccccc1)S(=O)(=O)c1csc(C(N)=O)c1 | 52.3% | 29.1 µM [falling, single point] | 29.1 µM [rising, single point]
CCc1cc(=O)oc2cc3oc(C)c(C)c3cc12 | 9.52% | 25.9 µM [rising, single point] | 
Cn1cc(C(N)=O)c2ccccc21 | -12% | 0.0517 µM [falling, full curve, poor fit] | 0.092 µM [falling, full curve, poor fit]
Cc1cc(C(F)(F)F)nn1CC(=O)N1CCOCC1 | -21.1% | 29.1 µM [falling, single point] | 
Cc1ccc(-c2nnc(NC(=O)c3ccc([N+](=O)[O-])o3)o2)c(C)c1 | 71.1% |  | 16.4 µM [rising, partial curve]
CCCCNC(=S)NNC(=O)c1csc(C)c1C | 4.97% | 6.51 µM [rising, single point] | 
CC1(C(=O)NC2CCCCCCC2)CCC(=O)N1Cc1cccnc1 (stereo not given) |  | 0.00517 µM [falling, full curve, poor fit] | 
CCN1CCc2c(sc(NC(=O)c3ccc(S(=O)(=O)N4CC(C)OC(C)C4)cc3)c2C(N)=O)C1 (stereo not given) | -21.1% |  | 
COc1ccc(OC)c(C2=NOC(C(=O)NCc3ccccn3)C2)c1 (stereo not given) | -2.83% | 4.61 µM [rising, partial curve, poor fit] | 
CC1(C)CC(=O)C=C(Nc2ccc(OCC(F)(F)C(F)F)cc2)C1 |  |  | 2.91 µM [rising, partial curve]
CCN(CC)C(=O)C1CCCN(c2ccc([N+](=O)[O-])cc2/C=N/NC(=O)c2ccc([N+](=O)[O-])cc2)C1 (stereo not given) | 6.03% | 2.91 µM [rising, partial curve] | 
Cc1ccc(S(=O)(=O)N2CCOCC2)cc1C(=O)Nc1ccc(N2CCCCCC2)cc1 | -44.8% | 16.4 µM [falling, partial curve] | 9.2 µM [falling, partial curve]
CC(C)(C)CC(=O)Nc1nnc(CCc2ccccc2)s1 | 9.46% | 23.1 µM [rising, single point] | 
COc1cc2c(=O)n(Cc3ccco3)c(=O)n(CC(=O)c3ccc(Br)cc3)c2cc1OC |  |  | 2.06 µM [rising, partial curve]
CC1CCN(S(=O)(=O)c2ccc3ncn(CC(=O)N4CCN(C)CC4)c(=O)c3c2)CC1 | -12.9% |  | 

Record cards, as listed above.
CCN1CCc2c(sc(NC(=O)c3ccc(S(=O)(=O)N4CC(C)OC(C)C4)cc3)c2C(N)=O)C1 (stereo not given) in the list: cell number change: -21.1%
Cc1ccc(-c2nnc(NC(=O)c3ccc([N+](=O)[O-])o3)o2)c(C)c1 in the list: cell number change: 71.1%; AC50 [2]: 16.4 µM [rising, partial curve]

Remaining list, next part.

SMILES | cell number change | AC50 [1] | AC50 [2]
Cc1noc(C)c1C(=O)OCC(=O)c1cc(C)n(Cc2ccccc2Cl)c1C | -15.2% | 0.13 µM [rising, full curve, poor fit] | 
O=C(Nc1nc2ccc(F)cc2s1)c1cccc(S(=O)(=O)N2CCc3ccccc32)c1 | 13% | 2.31 µM [rising, full curve] | 2.31 µM [rising, partial curve]
Cc1ccc(S(=O)(=O)N2CC(O)C[C@H]2C(=O)OCC(=O)Nc2ccc(N3CCOCC3)cc2)cc1C (stereo not given in full) | 12.4% |  | 
COC(=O)c1ncccc1SC | 71.7% | 29.1 µM [rising, single point] | 29.1 µM [rising, single point]
O=C(CCNS(=O)(=O)c1ccc(Br)cc1)NCc1ccc(F)cc1 | -33% |  | 13 µM [falling, partial curve, poor fit]
CCN(CC)S(=O)(=O)c1ccc(Cl)c(NC(=O)c2ccc(C#N)cc2)c1 |  |  | 0.731 µM [rising, single point]
CCOC(=O)c1ccc(COC(=O)c2cc3ccccc3oc2=O)o1 |  |  | 0.146 µM [falling, full curve, poor fit]
COc1cc(NC(=O)c2ccccc2F)ccc1NC(=O)c1cc2ccccc2o1 | -29.6% | 1.03 µM [falling, full curve, poor fit] | 1.84 µM [falling, full curve, poor fit]
CCCNC(=S)N1CCN(Cc2ccc3c(c2)OCO3)CC1 | -7.32% | 0.13 µM [falling, full curve, poor fit] | 
CCN(CC)S(=O)(=O)c1csc(C(=O)Nc2ccccn2)c1 | 245% |  | 18.4 µM [rising, single point]
O=C(CCNC(=O)c1ccc(Cl)cc1)Nc1c(F)c(F)cc(F)c1F | -13.6% | 0.116 µM [falling, full curve] | 1.64 µM [falling, partial curve]
CC(=O)NCC(=O)NC1CC(C)(C)Cc2c1cnn2-c1ccccc1 (stereo not given) | 3.94% |  | 
CC(C)c1c(C(=O)N/N=C/c2ccccc2C(=O)O)nnn1-c1nonc1N | 9.06% |  | 
Cc1cc(C)nc(CCNC(=O)c2cc(COc3ccc(F)cc3Cl)on2)n1 | 14.1% | 5.8 µM [rising, partial curve, poor fit] | 
COc1cc(-c2cc3nc(C)c(C)c(=O)n3[nH]2)cc(OC)c1OC | -0.32% | 3.66 µM [rising, partial curve] | 
Cc1nc(SCc2ccccc2)nc2c1CCC2 |  |  | 6.51 µM [falling, single point]
Cc1ccc(C)c(NC(=O)COC(=O)CNC(=O)c2ccccc2Cl)c1 | -49.2% |  | 
COc1ccccc1CC(=O)NNC(=O)c1ccco1 | 9.52% |  | 
CN(C)C(CNC(=O)c1cccc(S(=O)(=O)N2CC3(C)CC2CC(C)(C)C3)c1)c1ccco1 (stereo not given) | -10.2% | 0.092 µM [rising, full curve, poor fit] | 
